Measurements as given in US20200297842A1 (published 2020).
No constants are given. Whether binding was seen depends on the method and setting. Some entries that bind do so weakly or less than the wild type.

The chains behind the UniProt entries cited, without tags or fusion partners. Residues count along the entry.
UniProt P78324, residues 31-504: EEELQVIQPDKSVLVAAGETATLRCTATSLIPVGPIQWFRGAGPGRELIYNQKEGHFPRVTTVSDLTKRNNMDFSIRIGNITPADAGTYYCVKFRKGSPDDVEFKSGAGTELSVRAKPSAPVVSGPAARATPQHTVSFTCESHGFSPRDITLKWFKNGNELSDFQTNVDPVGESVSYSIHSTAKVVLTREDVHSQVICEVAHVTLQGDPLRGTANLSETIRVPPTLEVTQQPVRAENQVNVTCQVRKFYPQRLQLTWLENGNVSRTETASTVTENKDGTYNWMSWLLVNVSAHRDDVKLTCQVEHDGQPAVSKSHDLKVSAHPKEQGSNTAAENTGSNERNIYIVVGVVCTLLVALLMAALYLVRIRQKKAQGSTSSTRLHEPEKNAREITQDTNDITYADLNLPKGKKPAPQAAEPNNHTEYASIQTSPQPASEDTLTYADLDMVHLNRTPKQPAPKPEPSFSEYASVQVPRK

What was measured:
[1] = molecular target: T1, human SIRPα expressed on cells (human, UniProt P78324 31-504); test: flow cytometry on THP-1 cells (FIG. 2)
T1 construct: whole, on cells; Endogenous SIRPα of THP-1 cells and of donor-derived macrophages and dendritic cells; also called SIRPα expressing THP-1 cells; cell-expressed SIRPα on dendritic cells and/or macrophages

[2] = molecular target: T1, human SIRPα expressed on cells; test: flow cytometry on human macrophages and/or dendritic cells

Row | Binder | binding [1] | binding [2]
1 | SIRP2 (antibody, mouse IgG1, kappa, V domains shown, Hybridoma-derived mouse mAb) VH: EVKLVESGGGLVQPGGSLKLSCAASGFSFSGCTMSWIRQTPERRLEWVAYISNGGDITYYPDTVKGRFTISRDNAKNSLYLQMSSLKSEDTAMYYCARLDGYYYAMDFWGQGTSVTVSS VL: DILLTQSPAILSVSPGERVSFSCRASQSIGTSIHWYQQRTNGSPRLLIKYGSESISGIPSRFSGSGSGTDFTLSINSVESEDIADYYCQQSNTWPLTFGDGTKLELKR | binds | 
2 | SIRP3 (antibody, mouse IgG1, kappa, V domains shown, Hybridoma-derived mouse mAb) VH: EVQLQQSGPEVVKPGASVKMSCKASGYTFTSYVMHWVKQKPGQGLEWIGYINPYNDGPKYNEKFKGKATLTSDKSSSTAYMELSSLTSEDSAVYFCARWDYFNSASGFAFWGQGTLVTVSA VL: EIVLTQSPTTMAASPGEKITIICSASSIIGSDFLHWYQQRPGFSPKFLIYRTSILASGVPTRFTGSGSGTSYSLTIGTMEAEDVATYYCQQGSGLPLTFGSGTKLEMKR | binds | binds
3 | SIRP4 (antibody, V domains shown, detected with anti-mouse secondary antibody in the cell assays) VH: EVQLQQSGPDLVKPGASVKISCKASGYSFTDYFLNWVKQSHGKSLEWIGRINPYNGDSFINQNFRDKATLTVDKSSTTAHMDLLSLTSEDSAIYYCGRGGYDGYFIAYFDYWGQGSLVTVSA VL: DIKLTQSQSSMYSSLGQRVTITCKASQDINSHLSWFQEKPGKSPKTLIYRANRLADGVPSRFSGSGSGQDYFLTISSLEYEDVGIYYCLQYDEFPYTFGGGTKLEIK |  | binds

Continued, values first:

Row | binding [1] | binding [2] | Binder
4 |  | binds | SIRP5 (antibody, V domains shown) VH: QVQLQQSAAELARPGASVKMSCKASGYTFTSYTMHWVKQRPGQGLEWIGYINPTIGYTEYNQKFKDKTTLTADKSSSTAYMQLSSLTSEDSAVYYCVRLVITSVLGRAMDYWGQGTSVTVSS VL: QIVLTQSPALMSASPGEKVTMTCSASSSVSYMYWFQQKPRSSPKPWIYLTSNLASGVPARFSGSGSGTSYSLTISSMEAEDAATYYCQQWSGNPFTFGSGTKLEIK
5 |  | binds | SIRP9 (antibody, V domains shown, detected with anti-mouse secondary antibody in the cell assays) VH: EVQLQESGAELVRPGASVKLSCKALGYTFTDYEIHWVKETPVYGLEWIGDIHPGSGGTANNQKFKGKATLTADKSSNTAYMELSSLTSEDSAVYYCTRAVSGYYAMDYWGQGTSVTVSS VL: DIQMTQSSSSFSGSLGDRLTINCKASEDIYDRVAWYQQKPGNAPRLLISGTASLETGVLSRFSGSGSGKDYTLSINGLQAEDVATYYCQQYWTTPWTFGGGTKLEIK
